These results are taken from PMC8532385.

Experiment [1] concerns the target T1, MIEF2^Δ50-104 (V5-tagged, self-association-deficient mutant) (human) (UniProt Q96C03).
T1 sequence: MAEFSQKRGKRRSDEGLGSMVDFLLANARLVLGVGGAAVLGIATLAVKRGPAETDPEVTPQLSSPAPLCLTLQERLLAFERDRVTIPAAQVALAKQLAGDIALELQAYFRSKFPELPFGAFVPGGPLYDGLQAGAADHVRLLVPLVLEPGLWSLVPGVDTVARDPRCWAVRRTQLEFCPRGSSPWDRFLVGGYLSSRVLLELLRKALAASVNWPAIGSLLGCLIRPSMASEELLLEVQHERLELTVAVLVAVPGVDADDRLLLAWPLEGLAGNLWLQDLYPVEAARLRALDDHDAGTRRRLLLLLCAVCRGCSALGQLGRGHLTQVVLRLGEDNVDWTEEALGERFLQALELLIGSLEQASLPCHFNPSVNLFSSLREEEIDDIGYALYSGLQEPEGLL
The experiment in a line: cross-linking; in vivo crosslinking of transfected cells with 1 mM DSS in PBS, 1 h at room temperature (DMSO as control), stopped with 20 mM Tris pH 7.5; Western blot (Figure S7b, d).

For experiment [2], the target named is T2, MIEF1^Δ109-154 (V5-tagged, self-association-deficient mutant) (human) (UniProt Q9NQG6).
T2 sequence: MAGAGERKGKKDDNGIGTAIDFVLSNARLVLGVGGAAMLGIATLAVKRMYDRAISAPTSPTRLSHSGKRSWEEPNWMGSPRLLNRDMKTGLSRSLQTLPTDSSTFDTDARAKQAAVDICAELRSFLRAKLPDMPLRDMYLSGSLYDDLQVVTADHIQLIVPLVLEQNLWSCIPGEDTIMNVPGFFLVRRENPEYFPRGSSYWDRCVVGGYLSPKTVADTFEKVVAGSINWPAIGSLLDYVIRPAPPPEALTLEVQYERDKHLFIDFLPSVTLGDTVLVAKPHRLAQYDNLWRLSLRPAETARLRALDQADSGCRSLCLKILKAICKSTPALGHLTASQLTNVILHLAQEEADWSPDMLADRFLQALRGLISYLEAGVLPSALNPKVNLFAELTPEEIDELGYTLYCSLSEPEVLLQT
The description is as above.

No constants are given. Whether binding was seen depends on the method and setting. In cells and extracts the contact can be indirect. Sequences can lack the tags named with a protein.

B1: MIEF2^Δ50-104 (V5-tagged, self-association-deficient mutant) (protein, UniProt Q96C03-1)
chain: MAEFSQKRGKRRSDEGLGSMVDFLLANARLVLGVGGAAVLGIATLAVKRGPAETDPEVTPQLSSPAPLCLTLQERLLAFERDRVTIPAAQVALAKQLAGDIALELQAYFRSKFPELPFGAFVPGGPLYDGLQAGAADHVRLLVPLVLEPGLWSLVPGVDTVARDPRCWAVRRTQLEFCPRGSSPWDRFLVGGYLSSRVLLELLRKALAASVNWPAIGSLLGCLIRPSMASEELLLEVQHERLELTVAVLVAVPGVDADDRLLLAWPLEGLAGNLWLQDLYPVEAARLRALDDHDAGTRRRLLLLLCAVCRGCSALGQLGRGHLTQVVLRLGEDNVDWTEEALGERFLQALELLIGSLEQASLPCHFNPSVNLFSSLREEEIDDIGYALYSGLQEPEGLL
As for B1, the binding result in experiment [1] is “no binding”.

B2: MIEF1^Δ109-154 (V5-tagged, self-association-deficient mutant) (protein, UniProt Q9NQG6-1)
chain: MAGAGERKGKKDDNGIGTAIDFVLSNARLVLGVGGAAMLGIATLAVKRMYDRAISAPTSPTRLSHSGKRSWEEPNWMGSPRLLNRDMKTGLSRSLQTLPTDSSTFDTDARAKQAAVDICAELRSFLRAKLPDMPLRDMYLSGSLYDDLQVVTADHIQLIVPLVLEQNLWSCIPGEDTIMNVPGFFLVRRENPEYFPRGSSYWDRCVVGGYLSPKTVADTFEKVVAGSINWPAIGSLLDYVIRPAPPPEALTLEVQYERDKHLFIDFLPSVTLGDTVLVAKPHRLAQYDNLWRLSLRPAETARLRALDQADSGCRSLCLKILKAICKSTPALGHLTASQLTNVILHLAQEEADWSPDMLADRFLQALRGLISYLEAGVLPSALNPKVNLFAELTPEEIDELGYTLYCSLSEPEVLLQT
Take B2: the binding entry in experiment [2] is listed as “no binding”.
